Paper PMC10563079 (Molecules, 2023)
No constants are given. Whether binding was seen depends on the method and setting. Some results given as binding are weak or reduced against the parent protein; the word gives no strength.

Protein sequences, listed by entry. Tags and fused reporters are not part of them.
UniProt P19793: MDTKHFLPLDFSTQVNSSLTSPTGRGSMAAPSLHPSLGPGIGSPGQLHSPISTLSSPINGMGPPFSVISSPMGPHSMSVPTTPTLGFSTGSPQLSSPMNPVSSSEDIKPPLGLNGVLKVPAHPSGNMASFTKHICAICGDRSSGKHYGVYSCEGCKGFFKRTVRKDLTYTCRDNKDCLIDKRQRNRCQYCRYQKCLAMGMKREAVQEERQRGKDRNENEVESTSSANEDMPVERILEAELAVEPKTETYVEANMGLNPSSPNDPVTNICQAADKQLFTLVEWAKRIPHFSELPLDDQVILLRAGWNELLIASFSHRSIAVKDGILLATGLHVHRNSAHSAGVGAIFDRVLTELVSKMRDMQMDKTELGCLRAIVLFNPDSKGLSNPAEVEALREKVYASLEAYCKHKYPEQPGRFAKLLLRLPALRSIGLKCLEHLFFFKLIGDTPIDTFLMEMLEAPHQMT

Target: RXRα (UniProt P19793)
Experiment: SPR; Biacore 8K+; PD-1 or RXRα immobilised on CM5 by amine coupling (about 1500 RU), 25 °C, HBS-EP pH 7.4; PDL1, PPARα or FXR injected in series, without and with 5 µM cyc2-1 or cyc2-3; both purified

binding: binds
B1: FXR (receptor, UniProt Q96RI1 1-486)
chain: MVMQFQGLENPIQISPHCSCTPSGFFMEMMSMKPAKGVLTEQVAGPLGQNLEVEPYSQYSNVQFPQVQPQISSSSYYSNLGFYPQQPEEWYSPGIYELRRMPAETLYQGETEVAEMPVTKKPRMGASAGRIKGDELCVVCGDRASGYHYNALTCEGCKGFFRRSITKNAVYKCKNGGNCVMDMYMRRKCQECRLRKCKEMGMLAECMYTGLLTEIQCKSKRLRKNVKQHADQTVNEDSEGRDLRQVTSTTKSCREKTELTPDQQTLLHFIMDSYNKQRMPQEITNKILKEEFSAEENFLILTEMATNHVQVLVEFTKKLPGFQTLDHEDQIALLKGSAVEAMFLRSAEIFNKKLPSGHSDLLEERIRNSGISDEYITPMFSFYKSIGELKMTQEEYALLTAIVILSPDRQYIKDREAVEKLQEPLLDVLQKLCKIHQPENPQHFACLLGRLTELRTFNHHHAEMLMSWRVNDHKFTPLLCEIWDVQ
